# Results from PubChem BioAssay AID931 (National Center for Advancing Translational Sciences (NCATS), 2007).
# This list was built around the results that the source calls inconclusive (neither active nor inactive); the mix of calls is not that of the screen. Calls follow the shape of the dose curve; as a rule, active = well fitted cell-killing curve with a large enough effect; inconclusive = small, poorly fitted or top-dose-only effect; inactive = flat fitted curve, though single readings scatter. A potency beside an inconclusive call is a rough fit, not a confirmed value.
# Assay: Confirmation and Secondary Assay for Modulators of Hemoglobin Beta Chain Splicing at IVS2 654 locus: Cytotoxicity
# Details: HBB IVS2-654 splicing reporter cells
# From the text: NIH Chemical Genomics Center [NCGC]
# NIH Molecular Libraries Screening Centers Network [MLSCN]
# PI Name: Dr. Ryszard Kole
# Modulation of Alternative Splicing as Therapy
# Abnormal splicing is associated with a number of diseases, including cancer and genetic diseases such as cystic fibrosis, muscular dystrophy and beta-thalassemia. Alteration of disease associated splicing patterns provides a promising target for treatment. […] Mutations in the second intron of the b-globin gene at positions 654 or 705 are clinically relevant and cause mis-splicing which results in an out of frame gene product.
# Examination of toxicity of select compounds in EGFP-654 HeLa Cells
# HeLa cell lines were stably transfected with a construct in which the EGFP (enhanced green fluorescent protein) cDNA was interrupted by the second intron of the beta-globin gene (IVS2-654). The ISV2 intron contains mutations which cause mis-splicing of EGFP and premature termination of EGFP which results in a nonfluorescent protein product. […] Expression of the transgene was driven by the CMV promoter. […]
# Toxicity Screening. […] Luminescence was captured on an Viewlux CCD imager (Perkin Elmer) using a 15 second integration time and cell death was measured by comparing compound treatments to DMSO treatment (no cell death). […]
smiles,measurement,value
CC[C@@]1(O)C(=O)OCc2c1cc1n(c2=O)Cc2cc3ccccc3nc2-1,Potency,"inconclusive: 5 nM [cytotoxic, full curve]"
